The values below come from PMC7819943, “Rice protein-binding microarrays: a tool to detect cis-acting elements near promoter regions in rice”.

Protein sequences, listed by entry. Tags and fused reporters are not part of them.
UniProt Q0JBA9, entry or part of it: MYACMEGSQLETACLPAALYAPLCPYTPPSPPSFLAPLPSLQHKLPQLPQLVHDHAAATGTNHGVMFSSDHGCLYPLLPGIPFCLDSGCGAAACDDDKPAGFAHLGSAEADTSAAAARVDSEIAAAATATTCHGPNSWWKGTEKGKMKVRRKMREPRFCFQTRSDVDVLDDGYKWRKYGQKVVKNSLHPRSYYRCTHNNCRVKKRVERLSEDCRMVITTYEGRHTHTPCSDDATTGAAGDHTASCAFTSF

This is one part of the list.

In this assay the target is OsWRKY34 (Oryza sativa, UniProt Q0JBA9 1-250). Put plainly: protein-binding microarray (RPBM); PBS, 2% BSA, 51.3 ng/ul salmon testes DNA, 50 uM zinc acetate, 200 nM TF, 25 C, 1 h; high values mean tight binding. The following applies: protein: recombinant; tags: N-terminal polyhistidine and DsRed monomer fusion (pET32a); label: CyDye5-dUTP incorporated in the synthesized complementary strand; 3' TTTTT single-stranded linker to array surface; dsDNA, one strand shown. An outline of the steps:
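For the binding signal, per-feature fluorescence intensity was read in arbitrary units on an Axon 4000B scanner. Before scanning, a 2% BSA-blocked custom Agilent array made double-stranded with Cy5-dUTP was washed after 1 h at 25 °C with 200 nM protein and 50 µM zinc acetate. The proteins were Ni–NTA-purified transcription factors with N-terminal polyhistidine and DsRed fusions, expressed in E. coli BL21-CodonPlus.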
For the sequence “TCAAGAACCATAAAATTGCTCATTTTATAATTATCCTTTTCGGAGTCACCTAGTGCAG”, the binding signal was 8380 fluorescence intensity (a.u.).

With “TGTATTTTTCTTTCATAACTTGTATACTTGTATGTATTTGCGGAGTCACCTAGTGCAG”, the binding signal was 11200 fluorescence intensity (a.u.).

On to “TTCTCATACTCGTTGGCTCGTTGCTCCTTTGCATCAAATGCGGAGTCACCTAGTGCAG”, for which the binding signal is 8230 fluorescence intensity (a.u.).

Turning to “CCCACCTACAAGAAATCATTTCTACGACGCCTGCTACCTTCGGAGTCACCTAGTGCAG”, the binding signal was 8690 fluorescence intensity (a.u.).

Take “CCTACACACGAAACCTCCGCGCCTCATCCGGGCTTCGCGACGGAGTCACCTAGTGCAG”: the binding signal is 10600 fluorescence intensity (a.u.).

As to “CAACCTATAACTTCGCCGTAAGCTCCTCTTCGTTTTCTCTCGGAGTCACCTAGTGCAG”, the binding signal is 8570 fluorescence intensity (a.u.).

Turning to “TGCTGCTGCGATGGGAGGCCGGGAGGAGGGGCGGGGCGGCCGGAGTCACCTAGTGCAG”, the binding signal was 15400 fluorescence intensity (a.u.).

Regarding “CACTATACACCGCTGCTTGAATGCTGCCATGGTTCCAGCTCGGAGTCACCTAGTGCAG”, the binding signal is 8760 fluorescence intensity (a.u.).

As for “GTCCACAGCAAGATGCATGTCTTCGTCCACTAGCTATTTTCGGAGTCACCTAGTGCAG”, the binding signal was 8480 fluorescence intensity (a.u.).

As for “CTGCTTCCTCTTTCTTCTTCTTCTTCTGCTCTTTCTTCTTCGGAGTCACCTAGTGCAG”, the binding signal is 10000 fluorescence intensity (a.u.).

With “CTCTATTCGTTTTTCATATTATAAGTCGTTTGACGTTTTTCGGAGTCACCTAGTGCAG”, the binding signal was 9170 fluorescence intensity (a.u.).

Turning to “TTGCCCCATGCCATTGCTCTAGCTTGCCACCAACTCGAGCCGGAGTCACCTAGTGCAG”, the binding signal is 8090 fluorescence intensity (a.u.).

Turning to “AGACGCAAGACCACACACACACATACACATCCGCTGATAACGGAGTCACCTAGTGCAG”, the binding signal is 8180 fluorescence intensity (a.u.).

In the case of “TTGGTTTTTATTCAATCTCTTCTCTATCTCTATTATTATACGGAGTCACCTAGTGCAG”, the binding signal was 10300 fluorescence intensity (a.u.).

As for “TATTTTCGCTTCTACTTATATATGTTGAGTTTGAATTTGTCGGAGTCACCTAGTGCAG”, the binding signal is 12300 fluorescence intensity (a.u.).

Take “ACTGTGAGTGGACTTATTCCTTTAATTTACAATCTACATGCGGAGTCACCTAGTGCAG”: the binding signal is 8830 fluorescence intensity (a.u.).

“AAAGATCTCGCTCGCCGCCGCCTCTGTACTGACTCGACTCCGGAGTCACCTAGTGCAG”: the binding signal was 13200 fluorescence intensity (a.u.).

With “CCGCGTCCAATGTTTGATCGTCTGTCTTATTTGAAAATTTCGGAGTCACCTAGTGCAG”, the binding signal was 9110 fluorescence intensity (a.u.).

On to “GCACTACGGCTACCTCACCATTATGCTTCACCATCGACTCCGGAGTCACCTAGTGCAG”, for which the binding signal is 11900 fluorescence intensity (a.u.).

Take “GCCGCATTTAAGCGCTCTCCGGCCTAACTGTCCTATGCGCCGGAGTCACCTAGTGCAG”: the binding signal is 8220 fluorescence intensity (a.u.).

In the case of “CCTGTGATGTGTGTAAAATTTGTGTGCCCGTCAAAGATGACGGAGTCACCTAGTGCAG”, the binding signal was 8710 fluorescence intensity (a.u.).

In the case of “CCACCATGTATTCCTTGGCAGTGCTCCGCGAGTGATCAGCCGGAGTCACCTAGTGCAG”, the binding signal was 8790 fluorescence intensity (a.u.).

Regarding “GTAACTTGTCTATCTGTTTTGCTTTCTCAGCTAAATATCCCGGAGTCACCTAGTGCAG”, the binding signal was 10800 fluorescence intensity (a.u.).

Consider “GGCCTGTTCAGCTCGGTGGTGGTGGTGTTGTTGGTGGTGCCGGAGTCACCTAGTGCAG”, for which the binding signal is 8770 fluorescence intensity (a.u.).

For “GTTTGGTTTATTTCCCGAACAAGGGAAACAACGGGGCGGGCGGAGTCACCTAGTGCAG”, the binding signal is 10400 fluorescence intensity (a.u.).

Take “TGGGATGGGCTCGTGGTTTAGTTCGTGTCGATTTGACTGTCGGAGTCACCTAGTGCAG”: the binding signal was 11900 fluorescence intensity (a.u.).

With “CACTGCACAGATCATCCATCACCTGCAGCATTTGCCTTCTCGGAGTCACCTAGTGCAG”, the binding signal is 9060 fluorescence intensity (a.u.).

Take “AAATCAGCACCCCGCGCGCACTGCTTGCTCGCCATCGCTCCGGAGTCACCTAGTGCAG”: the binding signal is 8180 fluorescence intensity (a.u.).

Take “TGGTTATGTTGGTTTGCTTGCTGCTTTATTGGACTGAGATCGGAGTCACCTAGTGCAG”: the binding signal is 8090 fluorescence intensity (a.u.).

On to “TCCTGTTGTCGCCGTTGTTGTTATACCCAGTCAAATCCCCCGGAGTCACCTAGTGCAG”, for which the binding signal was 8360 fluorescence intensity (a.u.).

On to “ACTAGTGGGCTGCTTGGGTGGGGAGCCCGGGCCGGCAGATCGGAGTCACCTAGTGCAG”, for which the binding signal was 12000 fluorescence intensity (a.u.).

“TGCTAATTTGGATGGTGGTAGTTGAATTCAAGTGGGTTGACGGAGTCACCTAGTGCAG”: the binding signal is 9120 fluorescence intensity (a.u.).

With “CCCGCTCGCACTTTCGCAGAAACACCCCTCACCGACCCCGCGGAGTCACCTAGTGCAG”, the binding signal was 8660 fluorescence intensity (a.u.).

As for “ATTCAACAGCTACATTTCTGTAATTTATGTTTAAGTTTTACGGAGTCACCTAGTGCAG”, the binding signal was 9960 fluorescence intensity (a.u.).

With “TTTGGGCCGGGTTTTTGGTTTCTTCCTTTTTTTTTCTGGGCGGAGTCACCTAGTGCAG”, the binding signal is 12600 fluorescence intensity (a.u.).

Turning to “ACTTTTCACCCTGTTACATCAAATGTTTGGACACACGCATCGGAGTCACCTAGTGCAG”, the binding signal was 8850 fluorescence intensity (a.u.).

As for “CCAACTCGTCTCTGTGTCTCTCTTTCTGTACTTTTCTTTCCGGAGTCACCTAGTGCAG”, the binding signal was 9660 fluorescence intensity (a.u.).

With “TGTGTGCTGACAGTTCATTTTCCTTGTGTTGTGCTGTTGTCGGAGTCACCTAGTGCAG”, the binding signal is 9330 fluorescence intensity (a.u.).

With “GTTTGATCATCCATCTTATTTAAAAAATTTATGAAAAAATCGGAGTCACCTAGTGCAG”, the binding signal was 9060 fluorescence intensity (a.u.).

“ATGACTACTACATTGCAGCTGCTCTTCTTACAGACATAGACGGAGTCACCTAGTGCAG”: the binding signal is 9780 fluorescence intensity (a.u.).

“GAAATGATGTAGCCCATTCTTCTCTCTTTCTTTCTATTTTCGGAGTCACCTAGTGCAG”: the binding signal was 13000 fluorescence intensity (a.u.).

In the case of “CGCGCTCGTTGACTGACCTGACCTGTTCGATGTGCTTGACCGGAGTCACCTAGTGCAG”, the binding signal is 10800 fluorescence intensity (a.u.).
